Measurements reported in PMC11317515.
Read-outs that look alike come from different tables or passages of the source. These are yes or no findings as the source states them, for the method shown. For some of these results: Binding seen in cells or lysates may run through a third protein. Some results given as binding are weak or reduced against the parent protein; the word gives no strength. Tags and fused reporters may be left off the sequences shown.

Protein sequences, listed by entry. Tags and fused reporters are not part of them. Lines headed by an entry give the natural chain unless they say otherwise; changes in a name come on top.
UniProt P02566: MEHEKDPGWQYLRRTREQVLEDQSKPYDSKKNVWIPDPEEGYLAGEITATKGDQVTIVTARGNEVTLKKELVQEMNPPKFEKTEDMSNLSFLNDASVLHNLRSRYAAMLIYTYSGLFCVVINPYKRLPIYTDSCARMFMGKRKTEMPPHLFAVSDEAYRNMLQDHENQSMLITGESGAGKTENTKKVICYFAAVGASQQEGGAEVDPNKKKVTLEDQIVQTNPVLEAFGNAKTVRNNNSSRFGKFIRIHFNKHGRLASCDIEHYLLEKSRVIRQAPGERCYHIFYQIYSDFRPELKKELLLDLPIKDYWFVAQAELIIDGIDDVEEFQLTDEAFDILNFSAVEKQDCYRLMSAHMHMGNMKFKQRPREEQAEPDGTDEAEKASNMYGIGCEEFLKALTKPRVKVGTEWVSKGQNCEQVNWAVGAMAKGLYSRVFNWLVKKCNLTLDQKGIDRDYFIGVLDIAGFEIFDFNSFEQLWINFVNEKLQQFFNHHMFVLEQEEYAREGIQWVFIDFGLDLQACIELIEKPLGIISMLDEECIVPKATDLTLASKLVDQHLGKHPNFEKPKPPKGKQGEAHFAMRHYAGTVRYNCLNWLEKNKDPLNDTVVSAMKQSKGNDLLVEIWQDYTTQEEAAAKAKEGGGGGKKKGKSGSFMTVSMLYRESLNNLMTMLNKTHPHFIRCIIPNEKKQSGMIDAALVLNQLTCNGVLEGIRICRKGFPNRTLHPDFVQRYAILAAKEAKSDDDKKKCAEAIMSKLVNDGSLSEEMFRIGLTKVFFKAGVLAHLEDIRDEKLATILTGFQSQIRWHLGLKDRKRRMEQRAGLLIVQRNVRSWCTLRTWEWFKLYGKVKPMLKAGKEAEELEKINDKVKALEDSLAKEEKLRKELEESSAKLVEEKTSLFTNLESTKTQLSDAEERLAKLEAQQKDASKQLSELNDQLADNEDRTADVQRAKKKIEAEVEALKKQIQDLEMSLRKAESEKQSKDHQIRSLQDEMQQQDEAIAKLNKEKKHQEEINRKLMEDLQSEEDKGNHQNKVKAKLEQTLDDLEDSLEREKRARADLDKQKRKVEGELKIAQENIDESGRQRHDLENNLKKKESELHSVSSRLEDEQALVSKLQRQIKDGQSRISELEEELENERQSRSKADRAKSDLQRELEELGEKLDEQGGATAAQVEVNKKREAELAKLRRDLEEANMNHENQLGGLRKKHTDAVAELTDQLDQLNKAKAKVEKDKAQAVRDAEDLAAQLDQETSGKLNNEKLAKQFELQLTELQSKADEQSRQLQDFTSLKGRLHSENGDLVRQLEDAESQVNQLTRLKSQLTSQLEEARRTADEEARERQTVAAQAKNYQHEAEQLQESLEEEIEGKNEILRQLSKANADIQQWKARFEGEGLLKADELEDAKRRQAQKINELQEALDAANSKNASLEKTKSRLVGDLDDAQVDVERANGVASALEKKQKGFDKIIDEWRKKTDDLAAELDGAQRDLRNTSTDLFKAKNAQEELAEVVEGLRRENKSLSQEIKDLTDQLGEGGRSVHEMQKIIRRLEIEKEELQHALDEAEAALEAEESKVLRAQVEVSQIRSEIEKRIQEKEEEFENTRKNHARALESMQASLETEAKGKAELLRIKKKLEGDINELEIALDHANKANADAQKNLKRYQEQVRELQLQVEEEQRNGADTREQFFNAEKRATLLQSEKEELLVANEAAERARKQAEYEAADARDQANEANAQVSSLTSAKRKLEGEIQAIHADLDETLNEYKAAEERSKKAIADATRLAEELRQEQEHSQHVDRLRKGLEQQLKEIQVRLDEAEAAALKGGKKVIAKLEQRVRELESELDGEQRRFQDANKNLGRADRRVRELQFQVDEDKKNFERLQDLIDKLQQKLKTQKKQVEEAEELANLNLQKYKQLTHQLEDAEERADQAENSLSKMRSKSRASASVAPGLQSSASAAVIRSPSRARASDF

T1: FLAG-NHL-1 (C. elegans) (UniProt Q03601)
T1 sequence: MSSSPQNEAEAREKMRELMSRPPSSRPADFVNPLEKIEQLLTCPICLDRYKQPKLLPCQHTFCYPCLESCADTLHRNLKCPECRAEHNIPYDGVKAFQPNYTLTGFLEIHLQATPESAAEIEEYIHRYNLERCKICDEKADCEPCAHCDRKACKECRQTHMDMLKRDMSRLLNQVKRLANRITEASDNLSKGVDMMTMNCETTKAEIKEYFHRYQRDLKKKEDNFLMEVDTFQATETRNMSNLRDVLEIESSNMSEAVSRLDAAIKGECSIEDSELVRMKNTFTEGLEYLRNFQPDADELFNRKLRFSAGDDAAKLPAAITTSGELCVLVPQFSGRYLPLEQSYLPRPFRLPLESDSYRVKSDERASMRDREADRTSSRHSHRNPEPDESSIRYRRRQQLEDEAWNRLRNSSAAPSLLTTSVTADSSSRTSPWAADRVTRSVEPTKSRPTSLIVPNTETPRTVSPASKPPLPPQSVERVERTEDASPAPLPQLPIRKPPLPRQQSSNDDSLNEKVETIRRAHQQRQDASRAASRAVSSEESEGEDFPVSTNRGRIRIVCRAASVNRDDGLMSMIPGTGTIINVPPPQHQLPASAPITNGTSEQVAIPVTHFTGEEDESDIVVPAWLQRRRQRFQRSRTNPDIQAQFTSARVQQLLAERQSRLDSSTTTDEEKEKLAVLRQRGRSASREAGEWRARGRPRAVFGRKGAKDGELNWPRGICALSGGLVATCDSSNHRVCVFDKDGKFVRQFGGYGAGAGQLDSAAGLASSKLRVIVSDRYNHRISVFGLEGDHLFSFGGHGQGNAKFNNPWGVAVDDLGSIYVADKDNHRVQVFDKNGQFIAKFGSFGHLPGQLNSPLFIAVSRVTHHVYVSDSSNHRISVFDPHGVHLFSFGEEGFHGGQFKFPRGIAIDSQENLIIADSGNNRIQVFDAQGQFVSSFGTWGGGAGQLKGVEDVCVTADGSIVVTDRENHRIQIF

T2: NHL-1 (GAL4 two-hybrid fusion) (C. elegans) (UniProt Q03601)
T2 sequence: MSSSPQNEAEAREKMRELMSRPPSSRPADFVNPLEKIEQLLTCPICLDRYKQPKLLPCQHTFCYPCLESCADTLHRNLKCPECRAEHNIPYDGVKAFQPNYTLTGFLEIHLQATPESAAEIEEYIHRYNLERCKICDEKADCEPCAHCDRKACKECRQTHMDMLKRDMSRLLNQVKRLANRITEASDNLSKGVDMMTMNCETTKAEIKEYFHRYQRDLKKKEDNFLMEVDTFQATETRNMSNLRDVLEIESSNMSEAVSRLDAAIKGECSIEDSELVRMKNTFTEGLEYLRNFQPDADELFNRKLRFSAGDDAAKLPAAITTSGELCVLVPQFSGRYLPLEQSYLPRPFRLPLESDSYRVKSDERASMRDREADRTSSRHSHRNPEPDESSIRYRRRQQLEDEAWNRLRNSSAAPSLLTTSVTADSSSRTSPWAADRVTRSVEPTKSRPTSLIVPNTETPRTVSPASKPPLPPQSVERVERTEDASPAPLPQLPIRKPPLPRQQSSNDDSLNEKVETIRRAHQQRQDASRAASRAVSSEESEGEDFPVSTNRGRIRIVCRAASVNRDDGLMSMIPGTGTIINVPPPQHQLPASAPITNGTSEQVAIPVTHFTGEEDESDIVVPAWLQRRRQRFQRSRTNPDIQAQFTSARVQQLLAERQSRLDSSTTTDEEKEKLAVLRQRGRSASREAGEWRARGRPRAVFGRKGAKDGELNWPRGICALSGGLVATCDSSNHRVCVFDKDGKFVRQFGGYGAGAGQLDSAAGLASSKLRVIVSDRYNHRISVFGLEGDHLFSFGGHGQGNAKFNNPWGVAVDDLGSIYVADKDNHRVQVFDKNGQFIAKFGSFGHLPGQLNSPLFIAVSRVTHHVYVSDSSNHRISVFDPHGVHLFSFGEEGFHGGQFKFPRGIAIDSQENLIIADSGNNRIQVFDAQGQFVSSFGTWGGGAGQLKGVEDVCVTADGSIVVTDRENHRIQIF


What was measured:
FLAG-NHL-1 (C. elegans) [1] = target: T1, FLAG-NHL-1 (C. elegans); assay: co-IP; anti-FLAG (M2) and Dynabeads Protein A from lysates (NP40 lysis buffer, diluted in PBS with 0.02% Tween-20, 4 °C) of transgenic worms with FLAG-NHL-1 and HA-F40A3.6 in wild-type or unc-54(e1301) background, 25 °C for 24 h before collection; western blot
[2] = target: T2, NHL-1 (GAL4 two-hybrid fusion) (C. elegans); assay: two-hybrid; Matchmaker GAL4 yeast two-hybrid system 3, AH109 yeast, AD and BD fusions in varying combinations, growth on SD/-Leu/-Trp/-His at 30 °C for 4-5 days
FLAG-NHL-1 (C. elegans) [3] = target: T1, FLAG-NHL-1 (C. elegans); assay: co-IP; anti-FLAG (M2) and Dynabeads Protein A from lysates (NP40 lysis buffer, diluted in PBS with 0.02% Tween-20, 4 °C) of transgenic worms with FLAG-NHL-1 and HA-F40A3.6 in wild-type or unc-54(e1301) background, 25 °C for 24 h before collection; western blot; remark: listed apart in the source

binding [2]	Molecule	also measured
	UNC-54(e1301, p.G387R) (from UniProt P02566 1-1963)	binding (FLAG-NHL-1 (C. elegans) [1]): binds
binds	UNC-45 (GAL4 two-hybrid fusion) (protein, UniProt G5EG62 1-961) MVARVQTAEEIRDEGNAAVKDQDYIKADELYTEALQLTTDEDKALRPVLYRNRAMARLKRDDFEGAQSDCTKALEFDGADVKALFRRSLAREQLGNVGPAFQDAKEALRLSPNDKGIVEVLQRLVKANNDKIKQTTSLANKVTDMEKLAFRGEAKDTEQKMTALNNLLVLCRESESGATGVWNQGALVPFVLNLINDASENEEVTVTAIRILDETIKNSVRCMKFLAMHDPDGPKSVRFVCRLMCKKSTKDFVDATGILVQRVFNAMAKMDRQKEMKPDPEVAEANKIWIIRVLLELQEMLQDPKVGAVQRETCIDLFLKNLMHMDGGIPRGWSWKFVEERGLLALLDVASQIPELCEYPVSAETRQHVAICLQRLEEDMVFDTKRTIFKEKVDMFFNALISRCTNDDEGHKYRIKLSCFLITMLQGPVDIGINLITNDQLTPIMLEMAASQDHLMQGIAAELIVATVSKHERAINMLKVGIPVLRALYDSEDPTVKVRALVGLCKIGAAGGDDISKATMKEEAVISLAKTCKKFLLETEKYSVDIRRYACEGLSYLSLDADVKEWIVDDSLLLKALVLLAKKAGALCVYTLATIYANLSNAFEKPKVDEEMVKLAQFAKHHVPETHPKDTEEYVEKRVRALVEEGAVPACVAVSKTESKNALELIARSLLAFAEYEDLRGRIIAEGGTVLCLRLTKEASGEGKIKAGHAIAKLGAKADPMISFPGQRAYEVVKPLCDLLHPDVEGKANYDSLLTLTNLASVSDSIRGRILKEKAIPKIEEFWFMTDHEHLRAAAAELLLNLLFFEKFYEETVAPGTDRLKLWVLYSAEVEEERLSRASAAGFAILTEDENACARIMDEIKSWPEVFKDIAMHEDAETQRRGLMGIANIMHSSNKLCSEIVSSEVFRVLVAVTKLGTINQERAGSTEQAKRGLEAAEKFGLIKATDREIYERENQMSTIQE	
	UNC-45 (endogenous) (protein, UniProt G5EG62 1-961) MVARVQTAEEIRDEGNAAVKDQDYIKADELYTEALQLTTDEDKALRPVLYRNRAMARLKRDDFEGAQSDCTKALEFDGADVKALFRRSLAREQLGNVGPAFQDAKEALRLSPNDKGIVEVLQRLVKANNDKIKQTTSLANKVTDMEKLAFRGEAKDTEQKMTALNNLLVLCRESESGATGVWNQGALVPFVLNLINDASENEEVTVTAIRILDETIKNSVRCMKFLAMHDPDGPKSVRFVCRLMCKKSTKDFVDATGILVQRVFNAMAKMDRQKEMKPDPEVAEANKIWIIRVLLELQEMLQDPKVGAVQRETCIDLFLKNLMHMDGGIPRGWSWKFVEERGLLALLDVASQIPELCEYPVSAETRQHVAICLQRLEEDMVFDTKRTIFKEKVDMFFNALISRCTNDDEGHKYRIKLSCFLITMLQGPVDIGINLITNDQLTPIMLEMAASQDHLMQGIAAELIVATVSKHERAINMLKVGIPVLRALYDSEDPTVKVRALVGLCKIGAAGGDDISKATMKEEAVISLAKTCKKFLLETEKYSVDIRRYACEGLSYLSLDADVKEWIVDDSLLLKALVLLAKKAGALCVYTLATIYANLSNAFEKPKVDEEMVKLAQFAKHHVPETHPKDTEEYVEKRVRALVEEGAVPACVAVSKTESKNALELIARSLLAFAEYEDLRGRIIAEGGTVLCLRLTKEASGEGKIKAGHAIAKLGAKADPMISFPGQRAYEVVKPLCDLLHPDVEGKANYDSLLTLTNLASVSDSIRGRILKEKAIPKIEEFWFMTDHEHLRAAAAELLLNLLFFEKFYEETVAPGTDRLKLWVLYSAEVEEERLSRASAAGFAILTEDENACARIMDEIKSWPEVFKDIAMHEDAETQRRGLMGIANIMHSSNKLCSEIVSSEVFRVLVAVTKLGTINQERAGSTEQAKRGLEAAEKFGLIKATDREIYERENQMSTIQE	binding (FLAG-NHL-1 (C. elegans) [3]): binds
binds	UNC-45(b131, p.G427E) (GAL4 two-hybrid fusion) (protein, UniProt G5EG62 1-961) MVARVQTAEEIRDEGNAAVKDQDYIKADELYTEALQLTTDEDKALRPVLYRNRAMARLKRDDFEGAQSDCTKALEFDGADVKALFRRSLAREQLGNVGPAFQDAKEALRLSPNDKGIVEVLQRLVKANNDKIKQTTSLANKVTDMEKLAFRGEAKDTEQKMTALNNLLVLCRESESGATGVWNQGALVPFVLNLINDASENEEVTVTAIRILDETIKNSVRCMKFLAMHDPDGPKSVRFVCRLMCKKSTKDFVDATGILVQRVFNAMAKMDRQKEMKPDPEVAEANKIWIIRVLLELQEMLQDPKVGAVQRETCIDLFLKNLMHMDGGIPRGWSWKFVEERGLLALLDVASQIPELCEYPVSAETRQHVAICLQRLEEDMVFDTKRTIFKEKVDMFFNALISRCTNDDEGHKYRIKLSCFLITMLQEPVDIGINLITNDQLTPIMLEMAASQDHLMQGIAAELIVATVSKHERAINMLKVGIPVLRALYDSEDPTVKVRALVGLCKIGAAGGDDISKATMKEEAVISLAKTCKKFLLETEKYSVDIRRYACEGLSYLSLDADVKEWIVDDSLLLKALVLLAKKAGALCVYTLATIYANLSNAFEKPKVDEEMVKLAQFAKHHVPETHPKDTEEYVEKRVRALVEEGAVPACVAVSKTESKNALELIARSLLAFAEYEDLRGRIIAEGGTVLCLRLTKEASGEGKIKAGHAIAKLGAKADPMISFPGQRAYEVVKPLCDLLHPDVEGKANYDSLLTLTNLASVSDSIRGRILKEKAIPKIEEFWFMTDHEHLRAAAAELLLNLLFFEKFYEETVAPGTDRLKLWVLYSAEVEEERLSRASAAGFAILTEDENACARIMDEIKSWPEVFKDIAMHEDAETQRRGLMGIANIMHSSNKLCSEIVSSEVFRVLVAVTKLGTINQERAGSTEQAKRGLEAAEKFGLIKATDREIYERENQMSTIQE	
